Compound in this assay: Nc1ncnc2c1ncn2[C@@H]1O[C@H](COP(=O)(O)OP(=O)(O)OP(=O)(O)O)[C@@H](O)[C@H]1O [adenosine triphosphate]
In words: NP40-soluble protein abundance relative to vehicle (solubility fold change) (ratio); higher = more soluble protein in presence of ATP. The method in brief: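 Across three independent experiments, values are fold changes against the detergent-processed vehicle for each replicate, based on vsn-normalised intensities. The samples were Jurkat crude lysate treated with eight concentrations (0.1 to 10 mM) for 10 min at room temperature and then 3 min at 37 °C. Lysate was solubilised with 0.8% NP40 and benzonase, ultracentrifuged, and the supernatant analysed by TMT-labelled LC-MS/MS.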

Amino acid sequences for entries named in this document (tags omitted). A change or cut given only in a name is not applied to a line headed by its entry.
UniProt Q8N3C0, whole entry: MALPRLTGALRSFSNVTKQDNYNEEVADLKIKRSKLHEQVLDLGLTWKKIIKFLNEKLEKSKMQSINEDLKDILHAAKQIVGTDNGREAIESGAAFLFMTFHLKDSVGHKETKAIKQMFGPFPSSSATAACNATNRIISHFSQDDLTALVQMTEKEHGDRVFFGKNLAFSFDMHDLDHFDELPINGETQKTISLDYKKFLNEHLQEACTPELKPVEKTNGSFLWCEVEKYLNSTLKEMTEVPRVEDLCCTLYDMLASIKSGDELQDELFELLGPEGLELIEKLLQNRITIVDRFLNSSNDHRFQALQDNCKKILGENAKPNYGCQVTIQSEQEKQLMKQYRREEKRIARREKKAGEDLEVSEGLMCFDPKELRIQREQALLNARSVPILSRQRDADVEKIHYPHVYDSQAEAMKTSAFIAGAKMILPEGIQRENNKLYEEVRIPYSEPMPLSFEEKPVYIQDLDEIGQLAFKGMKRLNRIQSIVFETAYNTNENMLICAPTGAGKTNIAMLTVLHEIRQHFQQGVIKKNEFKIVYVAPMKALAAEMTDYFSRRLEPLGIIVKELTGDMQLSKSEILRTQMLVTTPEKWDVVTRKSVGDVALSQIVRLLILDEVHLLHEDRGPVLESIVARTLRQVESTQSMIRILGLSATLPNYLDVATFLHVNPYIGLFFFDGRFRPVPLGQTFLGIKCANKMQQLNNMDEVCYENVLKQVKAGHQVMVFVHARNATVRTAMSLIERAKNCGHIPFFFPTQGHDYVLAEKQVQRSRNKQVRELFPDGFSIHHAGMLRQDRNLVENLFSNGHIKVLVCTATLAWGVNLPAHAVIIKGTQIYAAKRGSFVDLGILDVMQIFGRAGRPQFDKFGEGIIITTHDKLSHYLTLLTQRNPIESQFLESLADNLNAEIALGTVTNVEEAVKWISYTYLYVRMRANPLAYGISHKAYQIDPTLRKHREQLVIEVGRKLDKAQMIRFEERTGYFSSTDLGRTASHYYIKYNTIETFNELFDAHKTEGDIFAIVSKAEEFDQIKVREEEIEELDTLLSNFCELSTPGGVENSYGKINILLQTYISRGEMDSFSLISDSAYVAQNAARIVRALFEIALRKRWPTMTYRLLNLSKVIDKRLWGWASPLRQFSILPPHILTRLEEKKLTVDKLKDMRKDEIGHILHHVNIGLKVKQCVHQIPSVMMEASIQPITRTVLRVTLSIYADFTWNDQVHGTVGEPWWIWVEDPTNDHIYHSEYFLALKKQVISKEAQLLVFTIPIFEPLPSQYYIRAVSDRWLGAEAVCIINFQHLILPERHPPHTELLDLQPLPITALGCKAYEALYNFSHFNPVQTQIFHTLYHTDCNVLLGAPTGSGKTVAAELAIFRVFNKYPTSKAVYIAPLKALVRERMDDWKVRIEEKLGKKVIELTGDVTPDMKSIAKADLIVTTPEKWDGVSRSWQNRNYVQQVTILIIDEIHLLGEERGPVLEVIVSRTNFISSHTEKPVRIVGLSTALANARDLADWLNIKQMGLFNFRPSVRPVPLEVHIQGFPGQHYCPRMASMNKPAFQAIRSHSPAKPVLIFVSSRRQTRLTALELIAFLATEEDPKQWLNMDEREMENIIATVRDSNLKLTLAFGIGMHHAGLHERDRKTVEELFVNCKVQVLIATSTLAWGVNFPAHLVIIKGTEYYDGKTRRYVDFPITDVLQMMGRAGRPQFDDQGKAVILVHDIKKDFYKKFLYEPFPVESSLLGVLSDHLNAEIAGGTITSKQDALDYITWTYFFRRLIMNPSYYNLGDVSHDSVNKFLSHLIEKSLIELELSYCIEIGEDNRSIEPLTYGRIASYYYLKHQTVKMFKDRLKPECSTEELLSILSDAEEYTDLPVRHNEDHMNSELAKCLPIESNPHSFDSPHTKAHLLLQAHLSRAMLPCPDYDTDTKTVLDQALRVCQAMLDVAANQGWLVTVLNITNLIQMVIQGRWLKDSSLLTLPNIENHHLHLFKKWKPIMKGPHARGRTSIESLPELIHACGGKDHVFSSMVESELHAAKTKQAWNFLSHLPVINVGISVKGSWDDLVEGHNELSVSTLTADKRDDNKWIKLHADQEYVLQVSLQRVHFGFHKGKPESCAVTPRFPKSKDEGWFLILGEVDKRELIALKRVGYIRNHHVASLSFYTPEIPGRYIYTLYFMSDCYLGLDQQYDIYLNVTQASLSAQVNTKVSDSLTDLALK
UniProt Q8N9N5: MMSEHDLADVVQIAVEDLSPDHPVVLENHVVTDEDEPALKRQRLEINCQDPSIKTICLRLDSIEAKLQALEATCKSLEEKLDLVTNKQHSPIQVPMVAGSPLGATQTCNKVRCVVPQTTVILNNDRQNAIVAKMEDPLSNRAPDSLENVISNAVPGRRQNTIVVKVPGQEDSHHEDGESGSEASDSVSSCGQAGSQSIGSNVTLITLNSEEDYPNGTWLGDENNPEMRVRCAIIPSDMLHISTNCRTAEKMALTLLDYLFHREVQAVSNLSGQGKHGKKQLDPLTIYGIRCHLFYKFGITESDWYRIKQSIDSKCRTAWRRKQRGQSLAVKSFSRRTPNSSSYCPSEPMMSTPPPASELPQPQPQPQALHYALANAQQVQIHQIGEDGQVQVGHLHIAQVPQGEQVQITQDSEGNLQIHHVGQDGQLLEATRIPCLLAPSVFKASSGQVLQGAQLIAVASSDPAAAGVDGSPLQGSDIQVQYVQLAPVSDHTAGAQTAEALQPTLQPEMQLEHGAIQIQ
UniProt Q8IW45: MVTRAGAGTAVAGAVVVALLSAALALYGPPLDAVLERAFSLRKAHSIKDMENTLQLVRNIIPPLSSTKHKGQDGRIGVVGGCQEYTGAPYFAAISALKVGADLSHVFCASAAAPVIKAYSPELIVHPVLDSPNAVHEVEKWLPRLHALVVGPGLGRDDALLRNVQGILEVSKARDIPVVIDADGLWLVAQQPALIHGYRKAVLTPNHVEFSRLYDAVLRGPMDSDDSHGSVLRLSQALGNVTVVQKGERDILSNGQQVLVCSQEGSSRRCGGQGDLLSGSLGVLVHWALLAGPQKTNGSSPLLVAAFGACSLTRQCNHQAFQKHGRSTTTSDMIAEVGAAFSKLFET
UniProt Q8N0V3: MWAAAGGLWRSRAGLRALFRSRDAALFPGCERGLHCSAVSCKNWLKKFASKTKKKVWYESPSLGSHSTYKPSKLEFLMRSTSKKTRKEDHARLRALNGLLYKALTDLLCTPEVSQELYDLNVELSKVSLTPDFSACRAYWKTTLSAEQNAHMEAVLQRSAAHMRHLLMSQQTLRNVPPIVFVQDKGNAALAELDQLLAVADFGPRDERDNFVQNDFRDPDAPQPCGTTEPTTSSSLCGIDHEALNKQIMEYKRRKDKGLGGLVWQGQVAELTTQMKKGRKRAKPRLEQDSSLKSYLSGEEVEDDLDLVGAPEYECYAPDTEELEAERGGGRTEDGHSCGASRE
UniProt Q8N1G1: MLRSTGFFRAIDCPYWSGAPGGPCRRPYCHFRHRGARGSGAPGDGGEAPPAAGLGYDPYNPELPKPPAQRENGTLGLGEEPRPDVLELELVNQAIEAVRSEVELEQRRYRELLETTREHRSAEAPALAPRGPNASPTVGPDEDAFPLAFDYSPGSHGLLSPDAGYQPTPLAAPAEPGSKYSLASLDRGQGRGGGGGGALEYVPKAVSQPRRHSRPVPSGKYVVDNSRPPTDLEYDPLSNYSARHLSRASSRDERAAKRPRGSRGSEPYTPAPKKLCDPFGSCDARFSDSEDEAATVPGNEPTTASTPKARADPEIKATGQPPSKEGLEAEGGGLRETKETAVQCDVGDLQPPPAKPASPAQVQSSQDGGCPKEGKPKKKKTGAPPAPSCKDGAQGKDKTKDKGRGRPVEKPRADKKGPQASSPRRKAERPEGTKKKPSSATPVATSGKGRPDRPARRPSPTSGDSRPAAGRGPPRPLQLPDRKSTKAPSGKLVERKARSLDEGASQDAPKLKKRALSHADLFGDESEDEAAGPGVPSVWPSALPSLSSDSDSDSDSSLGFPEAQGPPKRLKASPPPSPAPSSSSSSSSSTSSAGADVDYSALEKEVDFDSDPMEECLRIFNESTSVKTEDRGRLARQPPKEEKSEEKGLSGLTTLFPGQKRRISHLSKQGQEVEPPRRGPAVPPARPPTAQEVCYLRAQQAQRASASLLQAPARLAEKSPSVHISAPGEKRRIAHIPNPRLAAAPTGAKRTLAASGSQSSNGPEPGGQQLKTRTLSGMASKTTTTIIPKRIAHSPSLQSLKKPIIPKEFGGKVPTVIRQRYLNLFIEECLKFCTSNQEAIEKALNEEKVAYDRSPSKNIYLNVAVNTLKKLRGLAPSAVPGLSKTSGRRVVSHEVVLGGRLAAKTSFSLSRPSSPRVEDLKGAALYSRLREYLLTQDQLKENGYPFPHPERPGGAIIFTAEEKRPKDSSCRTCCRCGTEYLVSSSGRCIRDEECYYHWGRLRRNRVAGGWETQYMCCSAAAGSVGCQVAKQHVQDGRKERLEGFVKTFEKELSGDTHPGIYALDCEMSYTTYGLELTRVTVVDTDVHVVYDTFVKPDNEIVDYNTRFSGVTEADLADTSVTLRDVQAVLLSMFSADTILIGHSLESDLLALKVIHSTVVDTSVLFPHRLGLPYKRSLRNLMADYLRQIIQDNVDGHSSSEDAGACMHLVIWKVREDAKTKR
UniProt Q8N567: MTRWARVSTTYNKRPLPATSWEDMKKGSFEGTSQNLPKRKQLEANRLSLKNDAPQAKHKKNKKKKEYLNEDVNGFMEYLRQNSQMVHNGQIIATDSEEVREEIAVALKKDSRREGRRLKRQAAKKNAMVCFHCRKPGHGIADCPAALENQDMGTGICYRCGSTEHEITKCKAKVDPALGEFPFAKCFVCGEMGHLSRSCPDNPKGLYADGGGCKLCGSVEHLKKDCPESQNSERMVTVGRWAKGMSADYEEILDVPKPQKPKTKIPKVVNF
UniProt Q8NC96: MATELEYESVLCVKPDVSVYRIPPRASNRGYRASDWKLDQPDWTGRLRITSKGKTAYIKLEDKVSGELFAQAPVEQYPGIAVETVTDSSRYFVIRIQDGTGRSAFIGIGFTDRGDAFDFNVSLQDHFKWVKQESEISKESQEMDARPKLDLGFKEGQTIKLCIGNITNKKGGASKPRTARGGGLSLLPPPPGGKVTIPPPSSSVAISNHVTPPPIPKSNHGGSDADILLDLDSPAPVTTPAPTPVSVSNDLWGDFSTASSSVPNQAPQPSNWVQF
UniProt Q8N511: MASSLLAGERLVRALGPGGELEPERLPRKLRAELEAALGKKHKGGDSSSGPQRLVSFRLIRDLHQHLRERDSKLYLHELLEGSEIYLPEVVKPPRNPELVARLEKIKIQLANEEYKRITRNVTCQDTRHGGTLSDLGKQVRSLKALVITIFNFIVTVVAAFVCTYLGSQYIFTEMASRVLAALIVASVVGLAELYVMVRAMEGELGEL
UniProt Q8NBP0: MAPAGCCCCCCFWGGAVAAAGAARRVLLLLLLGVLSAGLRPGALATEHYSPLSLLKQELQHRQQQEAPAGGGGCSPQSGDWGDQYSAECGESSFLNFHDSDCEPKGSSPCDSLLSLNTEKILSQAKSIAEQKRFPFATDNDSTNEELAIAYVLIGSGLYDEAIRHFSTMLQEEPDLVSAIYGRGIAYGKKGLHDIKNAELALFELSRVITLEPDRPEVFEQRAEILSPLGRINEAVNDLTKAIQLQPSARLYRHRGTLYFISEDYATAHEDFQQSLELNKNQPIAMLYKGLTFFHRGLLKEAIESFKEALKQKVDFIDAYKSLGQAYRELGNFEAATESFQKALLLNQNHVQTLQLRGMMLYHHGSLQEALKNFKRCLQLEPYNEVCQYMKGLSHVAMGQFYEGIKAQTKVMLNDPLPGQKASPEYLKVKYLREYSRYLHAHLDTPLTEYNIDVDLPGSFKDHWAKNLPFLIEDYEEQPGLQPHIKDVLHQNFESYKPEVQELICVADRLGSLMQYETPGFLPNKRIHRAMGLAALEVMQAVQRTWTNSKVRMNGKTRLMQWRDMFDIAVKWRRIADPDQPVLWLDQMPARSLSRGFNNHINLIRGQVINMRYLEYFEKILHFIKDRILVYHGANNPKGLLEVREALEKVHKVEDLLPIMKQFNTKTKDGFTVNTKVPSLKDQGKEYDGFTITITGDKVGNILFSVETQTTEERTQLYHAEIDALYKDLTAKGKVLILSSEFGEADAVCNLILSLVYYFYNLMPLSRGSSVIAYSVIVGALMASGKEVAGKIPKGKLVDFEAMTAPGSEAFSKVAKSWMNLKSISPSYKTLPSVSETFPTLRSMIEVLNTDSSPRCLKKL
UniProt Q8NBA8: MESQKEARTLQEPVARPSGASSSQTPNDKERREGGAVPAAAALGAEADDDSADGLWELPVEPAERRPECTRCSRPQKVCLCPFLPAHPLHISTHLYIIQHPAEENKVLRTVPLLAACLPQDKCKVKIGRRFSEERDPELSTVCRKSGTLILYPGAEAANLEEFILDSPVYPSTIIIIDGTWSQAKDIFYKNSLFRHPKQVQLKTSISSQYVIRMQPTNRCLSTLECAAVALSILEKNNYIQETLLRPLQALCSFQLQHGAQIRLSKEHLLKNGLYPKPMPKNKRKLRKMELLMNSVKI

± gives the standard deviation of the averaged measurements. This is a selection; strong and weak results do not stand in their true shares. Most values lie at the level of the controls, where differences are scatter.

With UniProt Q8N8K9 and related entries, the NP40-soluble protein abundance runs as follows: (concentration: 0.1mM) 0.997 ± 0.097; (concentration: 0.5mM) 0.982 ± 0.027.
For UniProt Q8N5L8, the NP40-soluble protein abundance by setting is: (concentration: 0.1mM) 0.945 ± 0.049; (concentration: 0.5mM) 0.912 ± 0.072.
As to ALDH16A1 (UniProt Q8IZ83), the NP40-soluble protein abundance amounted to 1.01 ± 0.062 (concentration: 0.1mM) and 1.02 ± 0.079 (concentration: 0.5mM).
Consider CBR4 (UniProt Q8N4T8), for which the NP40-soluble protein abundance came to 1 ± 0.051 (concentration: 0.1mM) and 0.958 ± 0.083 (concentration: 0.5mM).
On to “UniProt Q8NCE2-2|Q8NCE2 and related entries”, for which the NP40-soluble protein abundance runs as follows: (concentration: 0.1mM) 0.982 ± 0.021; (concentration: 0.5mM) 1.01 ± 0.044.
The like results for UniProt Q8NCW5 were, in that order, 0.983 ± 0.088 and 0.943 ± 0.099.
In the case of PIAS4 (UniProt Q8N2W9), the NP40-soluble protein abundance stood at 0.975 ± 0.053 (concentration: 0.1mM) and 0.975 ± 0.1 (concentration: 0.5mM).
For UniProt Q8NG31 and related entries the same measures were 1.01 ± 0.012 and 1.03 ± 0.051.
As for UniProt Q8N6G5 and related entries, the NP40-soluble protein abundance runs as follows: (concentration: 0.1mM) 1.04 ± 0.11; (concentration: 0.5mM) 1 ± 0.062.
The like results for UniProt Q8N0Y2 and related entries were, in that order, 0.972 ± 0.13 and 1.073 ± 0.0015.
As to DHX37 (UniProt Q8IY37), the NP40-soluble protein abundance came out at 1.08 ± 0.015 (concentration: 0.1mM) and 1.16 ± 0.029 (concentration: 0.5mM).
For UniProt Q8N2K0 and related entries the same measures were 1.06 ± 0.047 and 1.04 ± 0.058.
As to UniProt Q8N4Q1 and related entries, the NP40-soluble protein abundance runs as follows: (concentration: 0.1mM) 0.917 ± 0.095; (concentration: 0.5mM) 0.906 ± 0.067.
The like results for THNSL1 (UniProt Q8IYQ7) were, in that order, 1.06 ± 0.065 and 1.03 ± 0.1.
Turning to NKAP (UniProt Q8N5F7), the NP40-soluble protein abundance (concentration: 0.1mM) was 0.987 ± 0.035 and the NP40-soluble protein abundance (concentration: 0.5mM) was determined as 1.03 ± 0.067.
On to ASCC3 (UniProt Q8N3C0), for which the NP40-soluble protein abundance is, setting by setting: (concentration: 0.1mM) 1.02 ± 0.031; (concentration: 0.5mM) 0.973 ± 0.042.
With UniProt Q8N9N5 and related entries, the NP40-soluble protein abundance runs as follows: (concentration: 0.1mM) 1.01 ± 0.052; (concentration: 0.5mM) 1.01 ± 0.067.
Turning to UniProt Q8NHY2 and related entries, the NP40-soluble protein abundance was found to be 1.02 ± 0.057 (concentration: 0.1mM) and 0.977 ± 0.14 (concentration: 0.5mM).
In the case of UniProt Q8IW45, the NP40-soluble protein abundance runs as follows: (concentration: 0.1mM) 1 ± 0.019; (concentration: 0.5mM) 0.992 ± 0.028.
The like results for UniProt Q8N0V3 were, in that order, 0.963 ± 0.082 and 0.972 ± 0.06.
For REXO1 (UniProt Q8N1G1) the same measures were 1.11 ± 0.13 and 1.01 ± 0.026.
The like results for ZCCHC9 (UniProt Q8N567) were, in that order, 0.991 ± 0.066 and 1.14 ± 0.032.
With NECAP1 (UniProt Q8NC96), the NP40-soluble protein abundance is, setting by setting: (concentration: 0.1mM) 1.02 ± 0.027; (concentration: 0.5mM) 0.928 ± 0.19.
With UniProt Q8N163, the NP40-soluble protein abundance reads like this: (concentration: 0.1mM) 0.939 ± 0.071; (concentration: 0.5mM) 0.966 ± 0.094.
The like results for RNF169 (UniProt Q8NCN4) were, in that order, 1.36 ± 0.2 and 1.06 ± 0.057.
The like results for UniProt Q8NB37 were, in that order, 0.968 ± 0.09 and 1.01 ± 0.046.
For UniProt Q8N6T7 and related entries the same measures were 1 ± 0.058 and 1.03 ± 0.066.
With TMEM199 (UniProt Q8N511), the NP40-soluble protein abundance turned out to be 0.855 ± 0.082 (concentration: 0.1mM) and 0.844 ± 0.096 (concentration: 0.5mM).
The like results for KRI1 (UniProt Q8N9T8) were, in that order, 1.06 ± 0.022 and 1.04 ± 0.021.
In the case of TTC13 (UniProt Q8NBP0), the NP40-soluble protein abundance reads like this: (concentration: 0.1mM) 1.17 ± 0.12; (concentration: 0.5mM) 1.12 ± 0.087.
The like results for UniProt Q8N5N7 and related entries were, in that order, 1.01 ± 0.32 and 0.977 ± 0.26.
For ZNF740 (UniProt Q8NDX6), the NP40-soluble protein abundance is, setting by setting: (concentration: 0.1mM) 0.976 ± 0.16; (concentration: 0.5mM) 0.998 ± 0.077.
On to DTWD2 (UniProt Q8NBA8), for which the NP40-soluble protein abundance amounted to 1 ± 0.059 (concentration: 0.1mM) and 1.05 ± 0.091 (concentration: 0.5mM).
For UniProt Q8NFH5 and related entries the same measures were 1.06 ± 0.14 and 0.98 ± 0.062.
For UniProt Q8TAA9 and related entries the same measures were 1.09 ± 0.16 and 1.22 ± 0.11.
Consider LNX2 (UniProt Q8N448), for which the NP40-soluble protein abundance is, setting by setting: (concentration: 0.1mM) 0.906 ± 0.13; (concentration: 0.5mM) 0.986 ± 0.012.
Consider “UniProt Q8IZP0-3|Q8IZP0-5|Q8IZP0-9|A0A0A0MRT6|B6VEX4 and related entries”, for which the NP40-soluble protein abundance runs as follows: (concentration: 0.1mM) 0.949 ± 0.062; (concentration: 0.5mM) 0.934 ± 0.035.
For AVL9 (UniProt Q8NBF6) the same measures were 1.04 ± 0.023 and 1.01 ± 0.022.
